Experimental data published in patent US20240321457A1, “SYSTEMS FOR AND METHODS OF TREATMENT SELECTION” (THE REGENTS OF THE UNIVERSITY OF CALIFORNIA, priority 2020, published 2024).
These are yes or no findings as the source states them, for the method shown. In cells and extracts the contact can be indirect. Some binding calls cover weakened binding; strength is not graded here.

Sequences of proteins named here, by UniProt entry; tags and fusion partners are left off. Residues count along the entry.
UniProt Q9UBG3: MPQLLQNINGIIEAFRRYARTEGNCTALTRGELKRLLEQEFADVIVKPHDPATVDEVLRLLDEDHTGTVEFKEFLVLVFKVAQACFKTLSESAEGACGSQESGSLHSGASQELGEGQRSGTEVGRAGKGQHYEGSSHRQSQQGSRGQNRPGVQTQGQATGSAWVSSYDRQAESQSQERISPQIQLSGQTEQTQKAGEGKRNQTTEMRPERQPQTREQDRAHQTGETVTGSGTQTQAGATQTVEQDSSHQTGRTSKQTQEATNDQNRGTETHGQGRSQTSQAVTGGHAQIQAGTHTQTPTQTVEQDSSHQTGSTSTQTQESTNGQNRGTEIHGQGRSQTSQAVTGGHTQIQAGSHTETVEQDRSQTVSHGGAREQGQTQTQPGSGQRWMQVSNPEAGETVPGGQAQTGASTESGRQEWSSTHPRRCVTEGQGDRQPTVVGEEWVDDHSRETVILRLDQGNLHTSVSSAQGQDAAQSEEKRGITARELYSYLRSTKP
UniProt Q14532: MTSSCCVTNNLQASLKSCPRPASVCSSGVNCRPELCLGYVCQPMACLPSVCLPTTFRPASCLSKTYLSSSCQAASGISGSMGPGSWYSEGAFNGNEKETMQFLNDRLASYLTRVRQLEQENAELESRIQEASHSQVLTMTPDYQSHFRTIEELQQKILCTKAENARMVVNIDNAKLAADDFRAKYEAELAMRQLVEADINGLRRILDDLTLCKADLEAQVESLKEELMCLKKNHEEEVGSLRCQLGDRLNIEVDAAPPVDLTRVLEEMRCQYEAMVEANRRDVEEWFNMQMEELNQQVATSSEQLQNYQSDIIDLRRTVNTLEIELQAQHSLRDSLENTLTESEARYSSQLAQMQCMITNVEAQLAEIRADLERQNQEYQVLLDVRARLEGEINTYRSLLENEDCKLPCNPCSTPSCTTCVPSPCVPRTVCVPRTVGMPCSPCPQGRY
UniProt Q9ULV0: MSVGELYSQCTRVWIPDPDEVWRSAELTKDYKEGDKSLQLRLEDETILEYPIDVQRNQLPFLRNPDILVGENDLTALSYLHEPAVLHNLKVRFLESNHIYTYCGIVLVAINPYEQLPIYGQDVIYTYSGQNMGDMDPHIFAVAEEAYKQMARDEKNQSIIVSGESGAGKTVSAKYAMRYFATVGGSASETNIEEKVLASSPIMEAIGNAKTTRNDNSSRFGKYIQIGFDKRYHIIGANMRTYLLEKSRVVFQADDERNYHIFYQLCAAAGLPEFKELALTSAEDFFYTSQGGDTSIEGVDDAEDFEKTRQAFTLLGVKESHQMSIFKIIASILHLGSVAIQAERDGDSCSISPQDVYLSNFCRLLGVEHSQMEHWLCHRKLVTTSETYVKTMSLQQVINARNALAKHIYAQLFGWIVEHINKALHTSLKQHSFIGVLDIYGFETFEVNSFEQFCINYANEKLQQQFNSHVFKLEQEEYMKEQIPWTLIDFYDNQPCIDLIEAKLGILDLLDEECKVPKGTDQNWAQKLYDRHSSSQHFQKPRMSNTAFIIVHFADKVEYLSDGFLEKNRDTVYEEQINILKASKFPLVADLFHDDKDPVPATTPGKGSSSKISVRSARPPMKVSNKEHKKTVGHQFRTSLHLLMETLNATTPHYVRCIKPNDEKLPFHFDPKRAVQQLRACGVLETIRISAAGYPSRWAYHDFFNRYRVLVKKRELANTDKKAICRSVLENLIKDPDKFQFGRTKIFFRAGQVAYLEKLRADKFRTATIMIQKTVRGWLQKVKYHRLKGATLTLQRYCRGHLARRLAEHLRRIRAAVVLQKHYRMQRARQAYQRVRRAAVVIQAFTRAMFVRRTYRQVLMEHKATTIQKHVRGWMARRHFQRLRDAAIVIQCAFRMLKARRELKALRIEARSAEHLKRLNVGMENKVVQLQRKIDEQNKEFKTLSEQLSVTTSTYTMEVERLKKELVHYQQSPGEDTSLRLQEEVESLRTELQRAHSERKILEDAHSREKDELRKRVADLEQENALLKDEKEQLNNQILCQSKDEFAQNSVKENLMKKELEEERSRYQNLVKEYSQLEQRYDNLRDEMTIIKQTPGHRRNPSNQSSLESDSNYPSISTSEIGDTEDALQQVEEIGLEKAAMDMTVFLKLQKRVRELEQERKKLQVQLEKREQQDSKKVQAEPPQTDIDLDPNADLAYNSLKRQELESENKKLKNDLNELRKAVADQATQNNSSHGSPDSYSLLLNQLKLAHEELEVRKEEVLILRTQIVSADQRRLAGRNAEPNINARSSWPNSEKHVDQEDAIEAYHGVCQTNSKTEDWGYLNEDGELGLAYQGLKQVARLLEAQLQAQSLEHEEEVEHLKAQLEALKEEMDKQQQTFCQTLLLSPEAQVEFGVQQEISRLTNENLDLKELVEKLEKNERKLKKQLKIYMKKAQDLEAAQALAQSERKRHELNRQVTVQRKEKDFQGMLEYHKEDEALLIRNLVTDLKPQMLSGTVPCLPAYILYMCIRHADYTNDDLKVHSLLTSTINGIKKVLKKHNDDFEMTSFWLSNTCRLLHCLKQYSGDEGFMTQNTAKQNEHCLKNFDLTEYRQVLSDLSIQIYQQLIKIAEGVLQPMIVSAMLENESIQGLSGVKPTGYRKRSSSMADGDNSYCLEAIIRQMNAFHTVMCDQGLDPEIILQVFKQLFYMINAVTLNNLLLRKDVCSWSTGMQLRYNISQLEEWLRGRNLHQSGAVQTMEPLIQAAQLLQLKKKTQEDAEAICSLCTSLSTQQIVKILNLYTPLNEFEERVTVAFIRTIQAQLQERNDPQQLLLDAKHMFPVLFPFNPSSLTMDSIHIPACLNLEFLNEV
UniProt P11387, residues 2-765: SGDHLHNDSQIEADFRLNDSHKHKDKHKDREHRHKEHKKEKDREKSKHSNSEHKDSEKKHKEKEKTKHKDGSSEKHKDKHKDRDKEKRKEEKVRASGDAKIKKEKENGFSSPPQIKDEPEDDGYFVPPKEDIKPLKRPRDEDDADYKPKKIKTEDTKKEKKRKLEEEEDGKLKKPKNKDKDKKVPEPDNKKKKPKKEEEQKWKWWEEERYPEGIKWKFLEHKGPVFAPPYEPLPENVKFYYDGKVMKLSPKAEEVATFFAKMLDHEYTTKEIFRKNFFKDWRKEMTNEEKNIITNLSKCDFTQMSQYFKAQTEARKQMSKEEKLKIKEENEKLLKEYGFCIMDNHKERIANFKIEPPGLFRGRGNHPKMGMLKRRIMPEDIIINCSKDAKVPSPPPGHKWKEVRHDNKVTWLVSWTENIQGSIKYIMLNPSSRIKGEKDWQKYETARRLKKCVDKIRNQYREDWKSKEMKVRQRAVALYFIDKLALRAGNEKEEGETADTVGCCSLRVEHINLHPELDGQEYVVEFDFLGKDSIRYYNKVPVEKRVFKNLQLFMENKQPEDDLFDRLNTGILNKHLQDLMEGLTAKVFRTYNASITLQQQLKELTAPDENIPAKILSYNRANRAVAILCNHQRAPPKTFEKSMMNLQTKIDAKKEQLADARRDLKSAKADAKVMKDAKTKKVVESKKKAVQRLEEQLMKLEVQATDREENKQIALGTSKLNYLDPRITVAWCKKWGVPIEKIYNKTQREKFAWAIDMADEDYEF
UniProt P31749: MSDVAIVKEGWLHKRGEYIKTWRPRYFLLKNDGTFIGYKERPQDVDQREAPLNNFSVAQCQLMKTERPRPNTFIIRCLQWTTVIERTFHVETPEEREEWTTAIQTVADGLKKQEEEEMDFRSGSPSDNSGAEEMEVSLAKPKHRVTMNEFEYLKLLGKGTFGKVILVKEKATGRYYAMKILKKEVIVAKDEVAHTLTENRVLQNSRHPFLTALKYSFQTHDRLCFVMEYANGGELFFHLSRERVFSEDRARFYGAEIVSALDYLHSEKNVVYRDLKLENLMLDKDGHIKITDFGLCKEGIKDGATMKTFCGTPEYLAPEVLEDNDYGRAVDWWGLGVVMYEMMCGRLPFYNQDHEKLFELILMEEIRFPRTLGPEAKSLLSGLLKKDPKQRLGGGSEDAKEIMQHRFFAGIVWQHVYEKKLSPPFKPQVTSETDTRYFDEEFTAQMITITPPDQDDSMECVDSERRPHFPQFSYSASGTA
UniProt Q9Y243: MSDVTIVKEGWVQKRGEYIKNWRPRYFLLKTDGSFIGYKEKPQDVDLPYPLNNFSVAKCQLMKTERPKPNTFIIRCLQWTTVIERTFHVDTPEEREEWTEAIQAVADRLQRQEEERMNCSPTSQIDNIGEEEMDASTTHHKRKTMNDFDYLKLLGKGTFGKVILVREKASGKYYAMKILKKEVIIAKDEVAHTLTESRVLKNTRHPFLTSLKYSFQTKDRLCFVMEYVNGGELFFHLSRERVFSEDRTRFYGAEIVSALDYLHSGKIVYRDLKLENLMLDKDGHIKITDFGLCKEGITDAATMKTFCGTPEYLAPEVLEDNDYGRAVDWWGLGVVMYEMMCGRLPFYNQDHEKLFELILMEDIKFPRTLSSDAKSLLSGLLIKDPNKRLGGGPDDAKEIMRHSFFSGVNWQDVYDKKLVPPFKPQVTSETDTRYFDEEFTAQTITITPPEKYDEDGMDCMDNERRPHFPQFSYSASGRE
UniProt P30281: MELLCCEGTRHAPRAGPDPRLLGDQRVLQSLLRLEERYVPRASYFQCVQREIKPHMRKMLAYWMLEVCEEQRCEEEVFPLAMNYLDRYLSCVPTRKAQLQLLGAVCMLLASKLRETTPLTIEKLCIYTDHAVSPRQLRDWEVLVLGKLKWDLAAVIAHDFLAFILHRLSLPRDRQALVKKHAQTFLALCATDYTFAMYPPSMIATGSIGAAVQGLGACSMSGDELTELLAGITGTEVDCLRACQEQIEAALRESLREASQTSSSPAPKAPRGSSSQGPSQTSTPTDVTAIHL
UniProt P12830, residues 155-882: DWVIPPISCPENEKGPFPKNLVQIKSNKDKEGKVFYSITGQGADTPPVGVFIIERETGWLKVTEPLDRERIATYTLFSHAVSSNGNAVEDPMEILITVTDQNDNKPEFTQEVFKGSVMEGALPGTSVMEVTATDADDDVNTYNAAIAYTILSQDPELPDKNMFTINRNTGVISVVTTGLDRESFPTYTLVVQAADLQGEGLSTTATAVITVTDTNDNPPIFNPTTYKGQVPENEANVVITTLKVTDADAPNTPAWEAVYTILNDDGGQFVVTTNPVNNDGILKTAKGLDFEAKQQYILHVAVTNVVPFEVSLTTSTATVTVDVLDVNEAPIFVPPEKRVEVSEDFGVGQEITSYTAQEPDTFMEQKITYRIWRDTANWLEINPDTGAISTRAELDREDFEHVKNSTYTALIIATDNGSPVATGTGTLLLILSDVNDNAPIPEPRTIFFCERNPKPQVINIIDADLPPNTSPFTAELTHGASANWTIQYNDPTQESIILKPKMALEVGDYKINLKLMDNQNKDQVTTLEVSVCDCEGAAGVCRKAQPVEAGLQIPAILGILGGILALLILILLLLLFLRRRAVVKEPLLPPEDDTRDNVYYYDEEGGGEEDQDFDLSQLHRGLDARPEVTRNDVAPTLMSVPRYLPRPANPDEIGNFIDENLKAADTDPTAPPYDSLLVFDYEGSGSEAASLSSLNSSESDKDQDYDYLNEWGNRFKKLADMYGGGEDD
UniProt P01106, residues 16-454: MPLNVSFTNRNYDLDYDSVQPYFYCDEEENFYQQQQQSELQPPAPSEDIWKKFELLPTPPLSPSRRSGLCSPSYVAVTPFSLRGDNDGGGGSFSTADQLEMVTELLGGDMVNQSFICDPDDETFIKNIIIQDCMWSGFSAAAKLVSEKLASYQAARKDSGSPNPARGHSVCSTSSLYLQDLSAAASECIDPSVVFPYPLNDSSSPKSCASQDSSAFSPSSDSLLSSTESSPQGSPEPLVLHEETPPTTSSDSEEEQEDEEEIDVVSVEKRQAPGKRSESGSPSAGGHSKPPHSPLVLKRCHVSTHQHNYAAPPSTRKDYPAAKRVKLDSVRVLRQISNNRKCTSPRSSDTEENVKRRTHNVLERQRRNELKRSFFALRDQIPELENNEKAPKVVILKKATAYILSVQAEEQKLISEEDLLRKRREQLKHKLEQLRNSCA

How the values were obtained:
SPRR3 (human) = biological target: T1, SPRR3 (human) (UniProt Q9UBC9); test: AP-MS, 3xFLAG bait, breast cell lines
T1 sequence (looked up): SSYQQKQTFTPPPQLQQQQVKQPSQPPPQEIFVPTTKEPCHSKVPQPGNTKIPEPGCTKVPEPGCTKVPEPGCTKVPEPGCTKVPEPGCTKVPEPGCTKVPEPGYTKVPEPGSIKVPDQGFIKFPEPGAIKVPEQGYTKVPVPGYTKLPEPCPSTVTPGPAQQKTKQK

CSTB (human) = biological target: T2, CSTB (human) (UniProt P04080); test: AP-MS, 3xFLAG bait, breast cell lines
T2 sequence (looked up): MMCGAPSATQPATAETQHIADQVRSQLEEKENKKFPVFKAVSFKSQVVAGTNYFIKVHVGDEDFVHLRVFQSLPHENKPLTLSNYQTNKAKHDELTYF

CRNN (human) = CRNN (human) (UniProt Q9UBG3); test: AP-MS, 3xFLAG bait, breast cell lines
[1] = biological target: T3, S100 Calcium Binding Protein A3 (human) (UniProt P33764); test: AP-MS, 3xFLAG bait, MDA-MB-231 cells
T3 sequence (looked up): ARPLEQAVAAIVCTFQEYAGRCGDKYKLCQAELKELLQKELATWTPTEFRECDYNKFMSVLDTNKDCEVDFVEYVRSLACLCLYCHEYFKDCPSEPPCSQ

keratin KRT32 (human) [2] = biological target: keratin KRT32 (human) (UniProt Q14532); test: AP-MS, 3xFLAG bait, MDA-MB-231 cells
[3] = biological target: T3, S100 Calcium Binding Protein A3 (human); test: AP-MS, 3xFLAG bait, breast cell lines
keratin KRT32 (human) [4] = biological target: keratin KRT32 (human) (UniProt Q14532); test: AP-MS, 3xFLAG bait, breast cell lines
CDKN1B (human) [5] = biological target: CDKN1B (human) (UniProt P46527); test: AP-MS, 3xFLAG bait, MCF7 and MDA-MB-231 cells
PLEKHA7 (human) [6] = biological target: T4, PLEKHA7 (human) (UniProt Q6IQ23); test: AP-MS, 3xFLAG bait, breast cell lines
T4 sequence (looked up): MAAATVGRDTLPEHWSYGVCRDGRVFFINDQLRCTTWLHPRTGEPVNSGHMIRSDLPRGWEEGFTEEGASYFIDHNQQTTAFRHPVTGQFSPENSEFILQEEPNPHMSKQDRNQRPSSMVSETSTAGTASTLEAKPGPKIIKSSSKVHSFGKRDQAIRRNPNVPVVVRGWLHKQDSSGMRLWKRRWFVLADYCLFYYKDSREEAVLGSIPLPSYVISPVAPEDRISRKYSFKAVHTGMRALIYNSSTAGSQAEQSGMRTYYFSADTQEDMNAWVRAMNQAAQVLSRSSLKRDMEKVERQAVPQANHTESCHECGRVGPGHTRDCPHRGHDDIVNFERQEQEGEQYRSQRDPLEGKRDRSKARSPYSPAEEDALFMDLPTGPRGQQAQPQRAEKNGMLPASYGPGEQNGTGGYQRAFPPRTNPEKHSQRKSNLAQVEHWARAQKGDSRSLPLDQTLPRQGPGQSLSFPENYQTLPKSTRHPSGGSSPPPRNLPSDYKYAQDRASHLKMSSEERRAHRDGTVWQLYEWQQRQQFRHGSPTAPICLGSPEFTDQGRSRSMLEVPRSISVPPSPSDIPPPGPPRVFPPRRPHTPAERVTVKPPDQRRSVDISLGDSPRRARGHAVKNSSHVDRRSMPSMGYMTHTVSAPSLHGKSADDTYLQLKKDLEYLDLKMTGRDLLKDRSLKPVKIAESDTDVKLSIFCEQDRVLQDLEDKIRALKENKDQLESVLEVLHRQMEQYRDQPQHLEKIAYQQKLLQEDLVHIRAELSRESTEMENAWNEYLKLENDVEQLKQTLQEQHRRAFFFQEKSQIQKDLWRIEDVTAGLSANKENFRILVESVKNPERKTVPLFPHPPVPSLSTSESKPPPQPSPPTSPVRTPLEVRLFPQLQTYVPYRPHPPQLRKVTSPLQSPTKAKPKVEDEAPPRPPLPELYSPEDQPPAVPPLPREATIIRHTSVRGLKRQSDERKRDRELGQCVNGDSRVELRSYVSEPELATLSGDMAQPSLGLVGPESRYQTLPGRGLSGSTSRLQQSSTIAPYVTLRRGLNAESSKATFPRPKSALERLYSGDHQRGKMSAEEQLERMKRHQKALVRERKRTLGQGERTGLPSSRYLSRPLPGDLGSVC

PKP4 (human) [7] = biological target: T5, PKP4 (human) (UniProt Q99569); test: AP-MS, 3xFLAG bait, breast cell lines
T5 sequence (looked up): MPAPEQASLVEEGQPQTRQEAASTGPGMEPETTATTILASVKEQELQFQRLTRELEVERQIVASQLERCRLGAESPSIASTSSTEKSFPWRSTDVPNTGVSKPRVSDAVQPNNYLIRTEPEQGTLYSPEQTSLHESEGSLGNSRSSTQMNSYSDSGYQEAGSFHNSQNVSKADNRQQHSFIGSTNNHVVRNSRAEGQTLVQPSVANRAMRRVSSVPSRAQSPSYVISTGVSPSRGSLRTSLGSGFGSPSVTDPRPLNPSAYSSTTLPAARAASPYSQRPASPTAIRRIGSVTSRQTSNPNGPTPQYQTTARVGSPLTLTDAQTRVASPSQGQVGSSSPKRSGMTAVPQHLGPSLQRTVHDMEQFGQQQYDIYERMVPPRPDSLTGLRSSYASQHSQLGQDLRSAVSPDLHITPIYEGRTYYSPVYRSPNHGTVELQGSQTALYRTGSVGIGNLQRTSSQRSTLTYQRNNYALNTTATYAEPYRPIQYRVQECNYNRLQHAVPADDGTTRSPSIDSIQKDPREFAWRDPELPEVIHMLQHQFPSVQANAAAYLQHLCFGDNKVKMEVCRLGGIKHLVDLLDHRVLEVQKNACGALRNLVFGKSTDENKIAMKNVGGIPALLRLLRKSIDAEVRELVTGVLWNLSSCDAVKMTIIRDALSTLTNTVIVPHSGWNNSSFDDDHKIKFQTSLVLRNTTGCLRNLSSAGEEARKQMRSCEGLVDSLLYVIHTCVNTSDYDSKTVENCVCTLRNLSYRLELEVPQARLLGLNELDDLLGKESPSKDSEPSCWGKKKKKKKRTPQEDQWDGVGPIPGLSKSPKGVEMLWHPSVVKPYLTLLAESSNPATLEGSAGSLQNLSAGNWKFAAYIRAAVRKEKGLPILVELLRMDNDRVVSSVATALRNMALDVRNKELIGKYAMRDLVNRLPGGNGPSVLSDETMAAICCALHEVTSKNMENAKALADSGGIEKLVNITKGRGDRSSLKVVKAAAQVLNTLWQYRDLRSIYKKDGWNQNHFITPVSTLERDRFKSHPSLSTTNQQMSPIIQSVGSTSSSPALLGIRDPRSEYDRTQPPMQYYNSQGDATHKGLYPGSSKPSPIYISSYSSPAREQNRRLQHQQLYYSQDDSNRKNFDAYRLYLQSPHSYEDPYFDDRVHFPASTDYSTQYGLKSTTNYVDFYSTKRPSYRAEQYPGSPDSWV

PLEKHA7 (human) [8] = biological target: T4, PLEKHA7 (human); test: AP-MS, 3xFLAG bait, MDA-MB-231 cells
PKP4 (human) [9] = biological target: T5, PKP4 (human); test: AP-MS, 3xFLAG bait, MDA-MB-231 cells
SPECCI (human) = biological target: T6, SPECCI (human) (UniProt Q5M775); test: AP-MS, WT vs mutant 3xFLAG bait
T6 sequence (looked up): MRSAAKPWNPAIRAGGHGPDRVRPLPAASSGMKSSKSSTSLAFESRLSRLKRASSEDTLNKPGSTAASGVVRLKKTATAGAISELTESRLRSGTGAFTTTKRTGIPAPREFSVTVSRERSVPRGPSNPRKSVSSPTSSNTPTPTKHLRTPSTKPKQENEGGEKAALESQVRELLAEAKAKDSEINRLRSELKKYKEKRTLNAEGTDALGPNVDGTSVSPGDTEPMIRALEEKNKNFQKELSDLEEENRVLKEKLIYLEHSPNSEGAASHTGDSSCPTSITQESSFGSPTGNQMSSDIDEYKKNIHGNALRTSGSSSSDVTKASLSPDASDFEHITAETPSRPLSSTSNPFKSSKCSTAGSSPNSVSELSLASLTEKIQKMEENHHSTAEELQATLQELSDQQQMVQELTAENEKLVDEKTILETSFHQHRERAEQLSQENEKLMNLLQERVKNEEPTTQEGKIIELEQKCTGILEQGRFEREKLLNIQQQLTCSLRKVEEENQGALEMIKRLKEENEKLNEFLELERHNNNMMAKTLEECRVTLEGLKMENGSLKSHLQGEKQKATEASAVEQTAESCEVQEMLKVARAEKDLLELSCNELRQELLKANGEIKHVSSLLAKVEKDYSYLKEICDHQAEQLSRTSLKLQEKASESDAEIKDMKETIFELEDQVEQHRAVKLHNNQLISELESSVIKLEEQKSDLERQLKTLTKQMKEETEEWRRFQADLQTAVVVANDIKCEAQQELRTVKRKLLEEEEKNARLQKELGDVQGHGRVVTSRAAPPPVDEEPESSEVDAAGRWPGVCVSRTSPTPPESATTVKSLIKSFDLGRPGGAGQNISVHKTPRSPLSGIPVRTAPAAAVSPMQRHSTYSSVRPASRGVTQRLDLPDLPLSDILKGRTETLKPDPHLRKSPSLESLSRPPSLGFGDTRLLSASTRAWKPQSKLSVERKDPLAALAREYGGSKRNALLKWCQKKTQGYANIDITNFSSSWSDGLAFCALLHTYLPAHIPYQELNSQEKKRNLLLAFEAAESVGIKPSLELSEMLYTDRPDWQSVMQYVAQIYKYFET

MYH10 (human) = MYH10 (human) (UniProt P35580); test: AP-MS, WT vs mutant 3xFLAG bait
MYO6 (human) = MYO6 (human) (UniProt Q9UM54); test: AP-MS, WT vs mutant 3xFLAG bait
SIPA1L3 (human) = SIPA1L3 (human) (UniProt O60292); test: AP-MS, WT vs mutant 3xFLAG bait
MYO5B (human) = MYO5B (human) (UniProt Q9ULV0); test: AP-MS, WT vs mutant 3xFLAG bait
CDKN1B (human) [10] = biological target: CDKN1B (human) (UniProt P46527); test: AP-MS, 3xFLAG bait, CAL-33, SCC-25 and HET-1A cells
CDKN1A (human) = CDKN1A (human) (UniProt P38936); test: as above
CCDC88C (human) [11] = biological target: CCDC88C (human) (UniProt Q9P219); test: AP-MS, 3xFLAG bait, CAL-33 cells
CCDC88C (human) [12] = biological target: CCDC88C (human) (UniProt Q9P219); test: AP-MS, differential interaction scoring
TOP1 (human) = TOP1 (human) (UniProt P11387); test: AP-MS, 3xFLAG bait, HNSCC/HET-1A cell lines
PARP1 (human) = PARP1 (human) (UniProt P09874); test: AP-MS, 3xFLAG bait, HNSCC/HET-1A cell lines
RRAD (human) = biological target: T7, RRAD (human) (UniProt P55042); test: quantitative AP-MS, MDA-MB-231 cells
T7 sequence (looked up): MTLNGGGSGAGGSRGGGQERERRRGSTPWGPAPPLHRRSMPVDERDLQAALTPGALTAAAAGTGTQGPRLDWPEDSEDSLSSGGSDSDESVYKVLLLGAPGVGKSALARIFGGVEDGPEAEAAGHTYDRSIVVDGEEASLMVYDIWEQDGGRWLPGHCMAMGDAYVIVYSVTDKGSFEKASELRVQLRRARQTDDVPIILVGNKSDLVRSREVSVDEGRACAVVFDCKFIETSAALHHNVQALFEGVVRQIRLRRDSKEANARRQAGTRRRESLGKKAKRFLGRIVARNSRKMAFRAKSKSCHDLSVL

Measured: binding

AKT1 (from UniProt P31749 1-480) (enzyme)
binds: SPRR3 (human) | CSTB (human) | CRNN (human) | [1] | keratin KRT32 (human) [2]

AKT3 (from UniProt Q9Y243 1-479) (enzyme)
binds: [3] | keratin KRT32 (human) [4] | [1] | keratin KRT32 (human) [2]

CCND3 (from UniProt P30281 1-292)
binds: CDKN1B (human) [5]

CDH1 (from UniProt P12830 155-882)
binds: PLEKHA7 (human) [6] | PKP4 (human) [7] | PLEKHA7 (human) [8] | PKP4 (human) [9]

CHEK2 1100delC (from UniProt O96017 1-366) (enzyme)
binds: SPECCI (human) | MYH10 (human) | MYO6 (human) | SIPA1L3 (human) | MYO5B (human)

CHEK2 K373E (from UniProt O96017 1-543) (enzyme)
binds: SPECCI (human) | MYH10 (human) | MYO6 (human) | SIPA1L3 (human) | MYO5B (human)

Cyclin D1 (from UniProt P24385 1-295)
binds: CDKN1B (human) [10] | CDKN1A (human)

ERBB2 (from UniProt P04626 23-1255) (receptor)
binds: CCDC88C (human) [11] | CCDC88C (human) [12]

MYC (from UniProt P01106 16-454)
binds: TOP1 (human) | PARP1 (human)

TP53 (from UniProt P04637 1-393)
binds: RRAD (human)
